# The other results are listed elsewhere or left out.
# Amino acid sequences for entries named in this document (tags omitted). A change or cut given only in a name is not applied to a line headed by its entry.
# UniProt Q01970, whole entry, looked up: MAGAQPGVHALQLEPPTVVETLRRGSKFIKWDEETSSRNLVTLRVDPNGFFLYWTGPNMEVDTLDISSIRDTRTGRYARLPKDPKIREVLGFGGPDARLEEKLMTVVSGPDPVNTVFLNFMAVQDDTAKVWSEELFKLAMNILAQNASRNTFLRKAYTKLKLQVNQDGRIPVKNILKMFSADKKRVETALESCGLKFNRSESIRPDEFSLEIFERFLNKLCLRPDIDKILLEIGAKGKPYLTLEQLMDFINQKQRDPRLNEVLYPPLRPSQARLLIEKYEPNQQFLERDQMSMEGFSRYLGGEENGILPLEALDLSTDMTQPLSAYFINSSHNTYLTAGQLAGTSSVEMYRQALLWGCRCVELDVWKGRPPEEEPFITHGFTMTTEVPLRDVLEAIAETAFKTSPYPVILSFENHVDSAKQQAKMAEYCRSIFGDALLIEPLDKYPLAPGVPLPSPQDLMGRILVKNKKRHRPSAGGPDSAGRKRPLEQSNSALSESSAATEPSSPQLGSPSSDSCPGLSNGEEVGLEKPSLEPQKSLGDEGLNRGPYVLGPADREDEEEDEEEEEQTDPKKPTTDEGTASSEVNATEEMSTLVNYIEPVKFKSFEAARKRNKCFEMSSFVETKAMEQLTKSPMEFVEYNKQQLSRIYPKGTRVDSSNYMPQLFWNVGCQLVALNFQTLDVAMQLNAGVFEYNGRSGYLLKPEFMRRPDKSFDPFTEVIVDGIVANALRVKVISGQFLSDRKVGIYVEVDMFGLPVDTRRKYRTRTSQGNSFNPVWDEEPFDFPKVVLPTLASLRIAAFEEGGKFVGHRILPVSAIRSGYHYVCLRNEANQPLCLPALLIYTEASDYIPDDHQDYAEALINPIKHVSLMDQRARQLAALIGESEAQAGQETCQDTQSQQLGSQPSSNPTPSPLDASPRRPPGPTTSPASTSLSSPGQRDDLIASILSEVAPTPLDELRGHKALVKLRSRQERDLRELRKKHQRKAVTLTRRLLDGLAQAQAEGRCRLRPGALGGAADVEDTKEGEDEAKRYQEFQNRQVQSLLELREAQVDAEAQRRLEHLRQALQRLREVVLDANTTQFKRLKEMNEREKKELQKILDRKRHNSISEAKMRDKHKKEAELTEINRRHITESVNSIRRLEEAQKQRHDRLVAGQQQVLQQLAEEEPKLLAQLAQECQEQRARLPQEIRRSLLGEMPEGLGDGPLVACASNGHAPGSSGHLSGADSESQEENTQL
# UniProt P78356: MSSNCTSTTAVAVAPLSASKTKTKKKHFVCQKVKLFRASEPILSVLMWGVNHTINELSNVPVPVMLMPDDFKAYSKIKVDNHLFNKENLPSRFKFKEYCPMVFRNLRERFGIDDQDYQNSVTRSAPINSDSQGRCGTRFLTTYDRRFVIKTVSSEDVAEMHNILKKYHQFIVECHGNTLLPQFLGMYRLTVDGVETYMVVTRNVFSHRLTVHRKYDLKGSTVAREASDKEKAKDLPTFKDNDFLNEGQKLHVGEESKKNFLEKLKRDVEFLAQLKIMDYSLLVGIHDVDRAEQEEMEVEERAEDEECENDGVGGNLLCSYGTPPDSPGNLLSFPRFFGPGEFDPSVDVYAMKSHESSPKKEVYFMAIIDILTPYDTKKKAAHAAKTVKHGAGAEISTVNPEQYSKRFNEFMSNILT
# UniProt O15067: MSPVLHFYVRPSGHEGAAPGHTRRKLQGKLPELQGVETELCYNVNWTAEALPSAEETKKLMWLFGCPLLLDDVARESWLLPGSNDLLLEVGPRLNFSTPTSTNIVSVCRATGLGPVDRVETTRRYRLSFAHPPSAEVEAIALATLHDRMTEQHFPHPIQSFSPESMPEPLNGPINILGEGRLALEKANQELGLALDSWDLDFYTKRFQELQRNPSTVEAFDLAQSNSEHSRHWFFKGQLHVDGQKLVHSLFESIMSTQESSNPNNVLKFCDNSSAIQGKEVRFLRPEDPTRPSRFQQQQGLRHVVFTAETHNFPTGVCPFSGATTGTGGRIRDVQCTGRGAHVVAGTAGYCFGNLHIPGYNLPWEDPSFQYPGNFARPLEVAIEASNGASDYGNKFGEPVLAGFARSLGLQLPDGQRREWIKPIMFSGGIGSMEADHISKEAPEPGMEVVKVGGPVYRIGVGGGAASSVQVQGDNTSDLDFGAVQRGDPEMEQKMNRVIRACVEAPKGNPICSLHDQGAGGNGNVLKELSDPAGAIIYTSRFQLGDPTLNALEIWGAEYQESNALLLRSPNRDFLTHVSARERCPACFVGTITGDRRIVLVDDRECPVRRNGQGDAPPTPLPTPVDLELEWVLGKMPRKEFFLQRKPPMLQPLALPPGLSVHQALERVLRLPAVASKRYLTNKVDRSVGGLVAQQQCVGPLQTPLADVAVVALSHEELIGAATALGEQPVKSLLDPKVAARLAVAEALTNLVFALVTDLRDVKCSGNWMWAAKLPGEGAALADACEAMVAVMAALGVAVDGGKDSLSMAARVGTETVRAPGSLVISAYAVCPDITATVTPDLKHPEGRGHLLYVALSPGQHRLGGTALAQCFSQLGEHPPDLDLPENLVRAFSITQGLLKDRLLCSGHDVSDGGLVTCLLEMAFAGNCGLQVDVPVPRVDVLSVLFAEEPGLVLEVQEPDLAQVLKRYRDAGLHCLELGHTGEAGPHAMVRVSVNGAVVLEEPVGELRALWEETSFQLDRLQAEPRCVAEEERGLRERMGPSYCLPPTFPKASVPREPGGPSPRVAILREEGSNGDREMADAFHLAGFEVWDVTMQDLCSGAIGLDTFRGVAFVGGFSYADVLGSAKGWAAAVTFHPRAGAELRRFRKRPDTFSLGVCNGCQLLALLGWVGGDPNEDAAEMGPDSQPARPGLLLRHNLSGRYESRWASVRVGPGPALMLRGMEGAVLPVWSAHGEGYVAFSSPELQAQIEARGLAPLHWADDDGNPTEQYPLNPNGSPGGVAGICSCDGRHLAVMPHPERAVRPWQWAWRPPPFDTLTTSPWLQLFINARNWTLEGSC
# UniProt Q8IXK0: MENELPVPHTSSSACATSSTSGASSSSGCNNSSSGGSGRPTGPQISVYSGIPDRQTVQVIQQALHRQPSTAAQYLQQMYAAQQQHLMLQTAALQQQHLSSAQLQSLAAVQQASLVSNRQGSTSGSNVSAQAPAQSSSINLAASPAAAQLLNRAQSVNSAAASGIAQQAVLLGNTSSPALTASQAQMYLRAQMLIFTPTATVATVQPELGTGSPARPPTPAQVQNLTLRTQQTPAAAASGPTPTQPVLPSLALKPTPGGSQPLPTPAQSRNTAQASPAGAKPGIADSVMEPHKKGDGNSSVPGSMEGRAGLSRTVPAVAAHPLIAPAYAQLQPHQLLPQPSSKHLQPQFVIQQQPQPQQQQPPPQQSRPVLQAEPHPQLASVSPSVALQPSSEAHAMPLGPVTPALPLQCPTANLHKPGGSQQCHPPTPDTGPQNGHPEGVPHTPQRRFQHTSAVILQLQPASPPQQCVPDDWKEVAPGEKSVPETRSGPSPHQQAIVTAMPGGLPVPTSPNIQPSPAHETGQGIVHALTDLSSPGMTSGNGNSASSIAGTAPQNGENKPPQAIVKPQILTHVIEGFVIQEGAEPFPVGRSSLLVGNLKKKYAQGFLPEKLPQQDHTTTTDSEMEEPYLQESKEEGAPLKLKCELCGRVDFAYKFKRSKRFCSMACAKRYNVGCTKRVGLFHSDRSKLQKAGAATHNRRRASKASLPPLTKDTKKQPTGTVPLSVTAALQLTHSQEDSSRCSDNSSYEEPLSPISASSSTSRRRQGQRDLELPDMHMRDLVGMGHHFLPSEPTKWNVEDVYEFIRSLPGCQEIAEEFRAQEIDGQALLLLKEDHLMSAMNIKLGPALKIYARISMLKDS
# UniProt Q92521: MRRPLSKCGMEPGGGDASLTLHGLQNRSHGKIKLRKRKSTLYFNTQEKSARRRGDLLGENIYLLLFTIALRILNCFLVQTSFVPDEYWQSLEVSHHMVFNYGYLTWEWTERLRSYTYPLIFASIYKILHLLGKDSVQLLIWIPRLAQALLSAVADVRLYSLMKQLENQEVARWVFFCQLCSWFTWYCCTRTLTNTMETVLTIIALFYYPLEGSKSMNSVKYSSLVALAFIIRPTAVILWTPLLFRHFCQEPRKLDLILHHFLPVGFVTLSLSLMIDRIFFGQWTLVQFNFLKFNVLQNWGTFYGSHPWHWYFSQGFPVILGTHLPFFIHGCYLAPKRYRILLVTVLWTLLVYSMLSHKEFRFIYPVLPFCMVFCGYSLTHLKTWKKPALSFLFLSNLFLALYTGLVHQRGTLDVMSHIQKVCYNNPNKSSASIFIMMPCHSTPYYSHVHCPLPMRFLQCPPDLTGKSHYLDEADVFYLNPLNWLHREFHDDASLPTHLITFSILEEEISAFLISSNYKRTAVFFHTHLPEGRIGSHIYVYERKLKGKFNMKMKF
# UniProt O95427: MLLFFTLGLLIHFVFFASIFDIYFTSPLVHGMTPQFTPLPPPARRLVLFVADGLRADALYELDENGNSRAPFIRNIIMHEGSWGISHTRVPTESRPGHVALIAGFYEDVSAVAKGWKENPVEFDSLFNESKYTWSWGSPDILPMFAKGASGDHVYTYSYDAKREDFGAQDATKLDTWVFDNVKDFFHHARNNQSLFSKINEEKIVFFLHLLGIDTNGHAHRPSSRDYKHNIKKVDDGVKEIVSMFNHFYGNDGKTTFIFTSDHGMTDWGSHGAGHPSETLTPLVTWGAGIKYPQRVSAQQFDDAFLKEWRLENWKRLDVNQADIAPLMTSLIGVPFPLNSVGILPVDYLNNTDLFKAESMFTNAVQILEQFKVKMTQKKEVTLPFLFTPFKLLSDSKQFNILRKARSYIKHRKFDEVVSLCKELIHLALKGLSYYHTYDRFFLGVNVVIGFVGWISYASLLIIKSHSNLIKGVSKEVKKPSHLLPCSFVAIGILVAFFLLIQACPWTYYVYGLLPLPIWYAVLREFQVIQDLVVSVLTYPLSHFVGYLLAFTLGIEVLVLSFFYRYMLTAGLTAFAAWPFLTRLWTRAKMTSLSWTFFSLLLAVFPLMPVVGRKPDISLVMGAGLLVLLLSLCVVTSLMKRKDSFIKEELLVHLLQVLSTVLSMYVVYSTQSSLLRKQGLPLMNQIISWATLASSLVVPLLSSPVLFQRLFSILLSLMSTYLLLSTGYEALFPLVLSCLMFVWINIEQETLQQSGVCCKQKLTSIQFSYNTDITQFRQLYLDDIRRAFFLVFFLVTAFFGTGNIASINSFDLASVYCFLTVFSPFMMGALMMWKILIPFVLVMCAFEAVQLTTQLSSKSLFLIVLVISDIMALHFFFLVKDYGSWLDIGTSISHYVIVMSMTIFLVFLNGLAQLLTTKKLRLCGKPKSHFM
# UniProt O00625: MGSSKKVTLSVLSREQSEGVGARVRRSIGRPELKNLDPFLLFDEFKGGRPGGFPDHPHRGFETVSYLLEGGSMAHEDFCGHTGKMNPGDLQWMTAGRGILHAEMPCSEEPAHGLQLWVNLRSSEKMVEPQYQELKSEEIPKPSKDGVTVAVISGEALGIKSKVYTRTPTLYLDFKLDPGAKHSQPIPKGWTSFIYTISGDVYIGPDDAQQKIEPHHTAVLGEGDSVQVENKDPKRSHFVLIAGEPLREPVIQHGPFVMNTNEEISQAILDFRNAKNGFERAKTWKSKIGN
# UniProt P48426: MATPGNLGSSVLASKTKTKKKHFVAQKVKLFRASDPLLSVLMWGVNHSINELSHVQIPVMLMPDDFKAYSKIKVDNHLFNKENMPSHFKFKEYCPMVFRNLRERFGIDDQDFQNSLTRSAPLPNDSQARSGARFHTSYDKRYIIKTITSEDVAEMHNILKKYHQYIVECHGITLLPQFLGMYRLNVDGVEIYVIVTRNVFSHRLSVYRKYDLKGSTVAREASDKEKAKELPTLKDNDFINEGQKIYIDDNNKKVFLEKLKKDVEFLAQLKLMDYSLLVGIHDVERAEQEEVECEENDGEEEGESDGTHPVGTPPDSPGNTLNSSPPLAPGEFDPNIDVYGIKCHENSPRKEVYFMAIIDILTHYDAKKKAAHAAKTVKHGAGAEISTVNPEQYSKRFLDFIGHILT
# Key:
# Assay in all cases: log2 fold change, soluble protein after heating vs DMSO (PISA); higher = thermal stabilisation; K562 cells, 10 uM, 30 min; active = over 0.2 and 3.5 SD of the protein, either way, in both replicates (recomputed)
# saracatinib = compound: CN1CCN(CCOc2cc(OC3CCOCC3)c3c(Nc4c(Cl)ccc5c4OCO5)ncnc3c2)CC1 [saracatinib]
# How it was run: (§1)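 Aliquots of K562 cells (2×10^6 cells/mL) treated with 10 μM compound for 30 min were heated for 3 min over 48°C-58°C. After pooling and extraction in PBS with 0.5% NP-40 at 4°C, soluble protein from a 21,000xg, 90 min spin was quantified by TMTpro 16plex LC-MS/MS with channel sums equalised. Thermal stability is expressed against control samples, from duplicates, as a log2 fold change.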
# sotrastaurin = compound: CN1CCN(c2nc(C3=C(c4c[nH]c5ccccc45)C(=O)NC3=O)c3ccccc3n2)CC1 [sotrastaurin]
# How it was run: as §1
# Tubastatin A = compound: CN1CCc2c(c3ccccc3n2Cc2ccc(C(=O)NO)cc2)C1 [Tubastatin A]
# How it was run: as §1
# [1] = compound: CNC(=O)C1=CC=CC=C1NC2=NC(=NC=C2Cl)NC3=C(C=C(C=C3)N4CCOCC4)OC
# How it was run: as §1
# defactinib = compound: CNC(=O)c1ccc(Nc2ncc(C(F)(F)F)c(NCc3nccnc3N(C)S(C)(=O)=O)n2)cc1 [defactinib]
# How it was run: as §1
# rucaparib = compound: CNCc1ccc(-c2[nH]c3cc(F)cc4c3c2CCNC4=O)cc1 [rucaparib]
# How it was run: as §1
# [2] = compound: CNc1nc(-c2ccc3c(N)n[nH]c3c2)cc(N2C[C@@H](C(=O)NC3CCCCC3)CC[C@H]2C)n1
# How it was run: as §1
# encorafenib = compound: COC(=O)N[C@@H](C)CNc1nccc(-c2cn(C(C)C)nc2-c2cc(Cl)cc(NS(C)(=O)=O)c2F)n1 [encorafenib]
# How it was run: as §1
# [3] = compound: COC(=O)[C@H](CCSC)NC(=O)C1=C(C=C(C=C1)NC[C@H](CS)N)C2=CC=CC=C2
# How it was run: as §1
# [4] = compound: COC1=CC=C(C=C1)CN2C=CC3=C2C=C(C=C3)C(=O)NO
# How it was run: as §1
# filanesib = compound: CON(C)C(=O)N1N=C(c2cc(F)ccc2F)S[C@@]1(CCCN)c1ccccc1 [filanesib]
# How it was run: as §1
# zotarolimus = compound: CO[C@H]1C[C@@H]2CC[C@@H](C)[C@@](O)(O2)C(=O)C(=O)N2CCCC[C@H]2C(=O)O[C@H]([C@H](C)C[C@@H]2CC[C@H](n3cnnn3)[C@H](OC)C2)CC(=O)[C@H](C)/C=C(\C)[C@@H](O)[C@@H](OC)C(=O)[C@H](C)C[C@H](C)/C=C/C=C/C=C/1C [zotarolimus]
# How it was run: as §1
# idasanutlin = compound: COc1cc(C(=O)O)ccc1NC(=O)[C@@H]1N[C@@H](CC(C)(C)C)[C@](C#N)(c2ccc(Cl)cc2F)[C@H]1c1cccc(Cl)c1F [idasanutlin]
# How it was run: as §1
# alisertib = compound: COc1cc(Nc2ncc3c(n2)-c2ccc(Cl)cc2C(c2c(F)cccc2OC)=NC3)ccc1C(=O)O [alisertib]
# How it was run: as §1
# [5] = compound: COc1cc2nc(-c3cc(F)ccc3O)nc(N[C@@H]3CNC[C@H]3C(C)(C)O)c2cc1OC
# How it was run: as §1
# gefitinib = compound: COc1cc2ncnc(Nc3ccc(F)c(Cl)c3)c2cc1OCCCN1CCOCC1 [gefitinib]
# How it was run: as §1
# [6] = compound: COc1cccc2cc(-c3nc([C@H]4CC[C@H](C(=O)O)CC4)n4ncnc(N)c34)[nH]c12
# How it was run: as §1
# lapatinib = compound: CS(=O)(=O)CCNCc1ccc(-c2ccc3ncnc(Nc4ccc(OCc5cccc(F)c5)c(Cl)c4)c3c2)o1 [lapatinib]
# How it was run: as §1
# pictilisib = compound: CS(=O)(=O)N1CCN(Cc2cc3nc(-c4cccc5[nH]ncc45)nc(N4CCOCC4)c3s2)CC1 [pictilisib]
# How it was run: as §1
# alvocidib = compound: CN1CC[C@H](c2c(O)cc(O)c3c(=O)cc(-c4ccccc4Cl)oc23)[C@H](O)C1 [alvocidib]
# How it was run: as §1
Target,log2 fold change (saracatinib),log2 fold change (sotrastaurin),log2 fold change (Tubastatin A),log2 fold change [1],log2 fold change (defactinib),log2 fold change (rucaparib),log2 fold change [2],log2 fold change (encorafenib),log2 fold change [3],log2 fold change [4],log2 fold change (filanesib),log2 fold change (zotarolimus),log2 fold change (idasanutlin),log2 fold change (alisertib),log2 fold change [5],log2 fold change (gefitinib),log2 fold change [6],log2 fold change (lapatinib),log2 fold change (pictilisib),log2 fold change (alvocidib)
PLCB3 (UniProt Q01970),inactive: -0.044,inactive: -0.039,inactive: -0.027,inactive: 0.023,inactive: -0.074,inactive: -0.015,inactive: -0.045,inactive: 0.004,inactive: -0.083,inactive: -0.004,inactive: -0.118,inactive: 0.007,inactive: -0.044,inactive: -0.05,inactive: -0.008,inactive: -0.003,inactive: 0.013,inactive: -0.028,inactive: 0.055,–
PIP4K2B (UniProt P78356),inactive: -0.021,inactive: -0.088,inactive: 0.022,inactive: 0.179,inactive: 0.176,inactive: -0.035,inactive: -0.083,inactive: 0.049,inactive: -0.108,inactive: 0.028,inactive: -0.146,inactive: 0.025,inactive: -0.104,inactive: -0.045,active: 0.379,inactive: 0.035,inactive: 0.207,inactive: -0.026,inactive: 0.022,–
PFAS (UniProt O15067),inactive: -0.043,inactive: 0,inactive: 0.046,active: -0.324,inactive: -0.029,inactive: 0,inactive: 0.251,inactive: 0.011,inactive: -0.075,inactive: 0.149,inactive: -0.045,inactive: 0.069,inactive: 0.085,inactive: 0.029,inactive: 0.26,inactive: -0.005,inactive: 0.013,inactive: -0.063,active: -0.449,–
PHC2 isoform 5 (UniProt Q8IXK0),inactive: 0.056,inactive: -0.055,–,–,inactive: 0.012,inactive: 0.127,inactive: 0.041,inactive: 0.351,inactive: -0.038,inactive: -0.166,inactive: 0.114,inactive: 0.02,–,inactive: -0.062,–,–,inactive: 0.261,–,–,inactive: -0.263
PIGB (UniProt Q92521),inactive: -0.035,inactive: -0.046,inactive: 0.082,inactive: -0.193,–,inactive: -0.007,inactive: -0.027,inactive: -0.074,–,inactive: 0,inactive: -0.032,inactive: 0.032,–,inactive: -0.001,inactive: -0.108,–,inactive: 0.063,inactive: -0.012,inactive: 0.165,inactive: 0.035
PIGN (UniProt O95427),inactive: 0.061,inactive: 0.074,inactive: 0.061,–,–,inactive: 0.037,inactive: -0.222,inactive: 0.099,–,inactive: -0.155,inactive: -0.123,inactive: 0.086,inactive: -0.069,inactive: -0.118,inactive: 0.136,inactive: -0.031,inactive: -0.122,inactive: -0.281,inactive: 0.059,inactive: 0.049
PHKA2 (UniProt P46019),inactive: 0.032,inactive: -0.085,inactive: -0.021,inactive: 0.135,inactive: 0.012,inactive: -0.063,inactive: -0.009,inactive: -0.022,inactive: -0.03,inactive: -0.17,inactive: -0.055,inactive: 0.022,inactive: -0.104,inactive: -0.067,inactive: 0.064,inactive: -0.006,inactive: 0.025,inactive: -0.037,inactive: 0.078,–
PIR (UniProt O00625),inactive: 0.025,inactive: -0.01,active: -0.284,inactive: -0.002,inactive: -0.09,inactive: 0.045,inactive: 0,inactive: -0.045,inactive: 0.012,active: -0.338,inactive: 0.015,inactive: 0.011,inactive: 0.033,inactive: -0.038,inactive: 0.085,inactive: 0.061,inactive: 0.011,inactive: 0.018,inactive: 0.077,–
PIP4K2A (UniProt P48426),inactive: 0.048,inactive: 0.011,inactive: -0.001,inactive: 0.084,inactive: 0.166,inactive: 0.013,inactive: -0.132,inactive: 0.1,inactive: -0.056,inactive: 0.022,inactive: 0.006,inactive: -0.002,inactive: -0.11,inactive: -0.018,active: 0.379,inactive: 0.017,inactive: 0.314,inactive: -0.054,inactive: 0.132,–
